Test results published in PubChem BioAssay (NCATS).
Several values for one entry are separate records, joined by “and”; a condition that tells them apart may be missing. Identical values can stand only once. The inconclusive results got no clear call from the source; some entries with a clear call stand among them for comparison. A potency beside an inconclusive call is a rough fit, not a confirmed value. Activity calls are given as the source filed them. Calls come from the whole dose curve; as a rule, active = well fitted curve in the direction sought with a large enough effect; inconclusive = small, poorly fitted or top-dose-only effect, or another doubt; inactive = no such curve, though single readings can be large; an effect the other way counts as inactive or inconclusive.

assay: qHTS assay to identify small molecule inhibitors of chordoma cells - UCH-2 (AID 1259356); conditions: UCH-2 chordoma viability, CellTiter-Glo ATP luminescence, 48 h; series mostly up to 46.1 µM
Potency is the fitted concentration of half-maximal effect.

Row | SMILES | Potency
1 | NC(=O)c1cnccn1 | inactive
2 | CNC(=O)c1cc(Oc2ccc(NC(=O)Nc3ccc(Cl)c(C(F)(F)F)c3)cc2)ccn1 | inconclusive: 25.9 µM [cytotoxic, single point]
3 | c1ccc([C@H]2CN3CCSC3=N2)cc1 | inactive

assay: Identifying Small Molecule Inhibitors of Pancreatic Cancer Stem Cells (A2780, Spheroid) (AID 1259357); conditions: Potency: A2780 spheroid viability; viability (percent of control): at 46.1 µM (top of the series);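 note: compound exposure lasted 48 h before the ATP luminescence read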;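 for viability (percent of control): 100% = DMSO treated cells and 0% = wells without cells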
Outline: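 Monolayer and spheroid cultures are compared. Spheroids form over 14 days in stem cell medium on hydrogel-coated low-attachment plates, then are exposed to compound for 48 h before CellTiter-Glo luminescence.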

Row | SMILES | Potency | viability (percent of control)
4 | O=C(NC1CCNCC1)c1[nH]ncc1NC(=O)c1c(Cl)cccc1Cl | inconclusive: 332 nM [cytotoxic, full curve] and inconclusive: 264 nM [cytotoxic, full curve] | –
5 | Nc1cccc2c1CN(C1CCC(=O)NC1=O)C2=O (stereo not drawn) | inconclusive: 481 nM [cytotoxic, full curve, poor fit] | –
6 | Cc1ccc(C(=O)Nc2ccc(CN3CCN(C)CC3)c(C(F)(F)F)c2)cc1C#Cc1cnc2cccnn12 | active: 14800 nM | –
7 | Cc1ccc(Nc2nccc(N(C)c3ccc4c(C)n(C)nc4c3)n2)cc1S(N)(=O)=O | inconclusive: 33.2 nM [rising, full curve, poor fit] | –
8 | COc1ccc2nc(S(=O)Cc3ncc(C)c(OC)c3C)[nH]c2c1 (stereo not drawn) | inconclusive: 1050 nM [cytotoxic, full curve] | –
9 | Cc1c(-c2ccc(O)cc2)n(Cc2ccc(OCCN3CCCCCC3)cc2)c2ccc(O)cc12 | – | inconclusive: 102%
10 | Cc1csc(-c2nnc(Nc3ccc(Oc4ncccc4-c4ccnc(N)n4)cc3)c3ccccc23)c1 | inconclusive: 743 nM [rising, full curve] | –
11 | CCn1c(-c2nonc2N)nc2c(C#CC(C)(C)O)ncc(OC[C@H]3CCCNC3)c21 | inconclusive: 3.3 nM [cytotoxic, full curve, poor fit] | –
12 | CC(=O)c1c(C)c2cnc(Nc3ccc(N4CCNCC4)cn3)nc2n(C2CCCC2)c1=O | inactive | –
13 | Cc1ccc(NC(=O)c2cccc(C(C)(C)C#N)c2)cc1Nc1ccc2ncn(C)c(=O)c2c1 | inconclusive: 296 nM [cytotoxic, full curve, poor fit] | –
14 | O=c1[nH]c(-c2ccc(C(F)(F)F)cc2)nc2c1CSCC2 | inconclusive: 93.5 nM [rising, full curve, poor fit] | –
15 | O=C(O)CCc1ccc(NCc2cccc(Oc3ccccc3)c2)cc1 | – | inconclusive: 103%
16 | CC1(O)CC(c2nc(-c3ccc4ccc(-c5ccccc5)nc4c3)c3c(N)nccn23)C1 (stereo not drawn) | inconclusive: 41.8 nM [rising, full curve, poor fit] | –
17 | Cc1ccc(-c2ncn(-c3ccc(Nc4nccc(-c5cccc(N6CCOCC6)c5)n4)cc3)n2)cn1 | inconclusive: 14.8 nM [cytotoxic, full curve, poor fit] | –
18 | C1=CCOCc2cc(ccc2OCCN2CCCC2)Nc2nccc(n2)-c2cccc(c2)OCC1 | active: 3320 nM | –
19 | Cc1cn(-c2cc(NC(=O)c3ccc(C)c(Nc4nccc(-c5cccnc5)n4)c3)cc(C(F)(F)F)c2)cn1 | inconclusive: 3320 nM [cytotoxic, full curve, poor fit] | –
20 | COc1ccc2c(c1)CC[C@@H](CN(C)CC(=O)O)[C@H]2c1ccccc1 | – | inconclusive: 112%
21 | NC(=O)C1CCCc2c1[nH]c1ccc(Cl)cc21 (stereo not drawn) | inconclusive: 7430 nM [cytotoxic, partial curve, poor fit] | –
22 | COc1cc(OC2CCN(C)CC2)ccc1Nc1ncc2c(n1)n(C1CCCC1)c(=O)n2C | inconclusive: 935 nM [cytotoxic, partial curve, poor fit] | –
23 | CNC(=O)c1cc(Oc2ccc(NC(=O)Nc3ccc(Cl)c(C(F)(F)F)c3)cc2)ccn1 | active: 20900 nM | –
